Some of the results follow.
Key:
Test in all cases: log2 fold change, soluble protein after heating vs DMSO (PISA); higher = thermal stabilisation; K562 lysate, 10 uM; active = over 0.2 and 3.5 SD of the protein, either way, in both replicates (recomputed)
[1] = compound: CS(=O)(=O)CCNCc1ccc(-c2ccc3ncnc(Nc4ccc(OCc5cccc(F)c5)c(Cl)c4)c3c2)o1 [lapatinib]
How it was run: (§1)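 Following dounce homogenisation of K562 pellets in PBS pH 7.4 with 1 mM MgCl2, crude extract at 1 mg/mL protein was incubated for 30 min with 10 μM compound. Aliquots were then heated for 3 min over 48°C-58°C and pooled, NP-40 was added to 0.5% at 4°C, and soluble protein was recovered as the supernatant at 21,000xg for 90 min. Channel-sum-equalised TMTpro 16plex LC-MS/MS quantified this protein. Each value, from duplicates, is a log-two fold change in thermal stability relative to solvent controls.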

By UniProt entry, the sequences of proteins in these tests, tags left out. Where a name states a change or a piece, a line headed by the entry shows the natural chain unless it says otherwise.
UniProt P00966: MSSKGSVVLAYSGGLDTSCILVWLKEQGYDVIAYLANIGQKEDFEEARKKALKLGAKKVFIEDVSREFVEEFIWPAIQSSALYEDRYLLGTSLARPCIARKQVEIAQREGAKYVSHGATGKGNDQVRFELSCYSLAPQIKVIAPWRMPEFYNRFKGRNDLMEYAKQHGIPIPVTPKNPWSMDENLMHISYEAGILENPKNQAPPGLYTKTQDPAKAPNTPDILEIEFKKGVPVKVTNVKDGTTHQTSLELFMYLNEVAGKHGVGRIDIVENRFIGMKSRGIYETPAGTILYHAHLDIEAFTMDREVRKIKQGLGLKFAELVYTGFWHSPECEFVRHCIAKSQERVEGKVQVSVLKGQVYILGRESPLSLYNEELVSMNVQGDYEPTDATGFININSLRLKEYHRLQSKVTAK
UniProt Q04656: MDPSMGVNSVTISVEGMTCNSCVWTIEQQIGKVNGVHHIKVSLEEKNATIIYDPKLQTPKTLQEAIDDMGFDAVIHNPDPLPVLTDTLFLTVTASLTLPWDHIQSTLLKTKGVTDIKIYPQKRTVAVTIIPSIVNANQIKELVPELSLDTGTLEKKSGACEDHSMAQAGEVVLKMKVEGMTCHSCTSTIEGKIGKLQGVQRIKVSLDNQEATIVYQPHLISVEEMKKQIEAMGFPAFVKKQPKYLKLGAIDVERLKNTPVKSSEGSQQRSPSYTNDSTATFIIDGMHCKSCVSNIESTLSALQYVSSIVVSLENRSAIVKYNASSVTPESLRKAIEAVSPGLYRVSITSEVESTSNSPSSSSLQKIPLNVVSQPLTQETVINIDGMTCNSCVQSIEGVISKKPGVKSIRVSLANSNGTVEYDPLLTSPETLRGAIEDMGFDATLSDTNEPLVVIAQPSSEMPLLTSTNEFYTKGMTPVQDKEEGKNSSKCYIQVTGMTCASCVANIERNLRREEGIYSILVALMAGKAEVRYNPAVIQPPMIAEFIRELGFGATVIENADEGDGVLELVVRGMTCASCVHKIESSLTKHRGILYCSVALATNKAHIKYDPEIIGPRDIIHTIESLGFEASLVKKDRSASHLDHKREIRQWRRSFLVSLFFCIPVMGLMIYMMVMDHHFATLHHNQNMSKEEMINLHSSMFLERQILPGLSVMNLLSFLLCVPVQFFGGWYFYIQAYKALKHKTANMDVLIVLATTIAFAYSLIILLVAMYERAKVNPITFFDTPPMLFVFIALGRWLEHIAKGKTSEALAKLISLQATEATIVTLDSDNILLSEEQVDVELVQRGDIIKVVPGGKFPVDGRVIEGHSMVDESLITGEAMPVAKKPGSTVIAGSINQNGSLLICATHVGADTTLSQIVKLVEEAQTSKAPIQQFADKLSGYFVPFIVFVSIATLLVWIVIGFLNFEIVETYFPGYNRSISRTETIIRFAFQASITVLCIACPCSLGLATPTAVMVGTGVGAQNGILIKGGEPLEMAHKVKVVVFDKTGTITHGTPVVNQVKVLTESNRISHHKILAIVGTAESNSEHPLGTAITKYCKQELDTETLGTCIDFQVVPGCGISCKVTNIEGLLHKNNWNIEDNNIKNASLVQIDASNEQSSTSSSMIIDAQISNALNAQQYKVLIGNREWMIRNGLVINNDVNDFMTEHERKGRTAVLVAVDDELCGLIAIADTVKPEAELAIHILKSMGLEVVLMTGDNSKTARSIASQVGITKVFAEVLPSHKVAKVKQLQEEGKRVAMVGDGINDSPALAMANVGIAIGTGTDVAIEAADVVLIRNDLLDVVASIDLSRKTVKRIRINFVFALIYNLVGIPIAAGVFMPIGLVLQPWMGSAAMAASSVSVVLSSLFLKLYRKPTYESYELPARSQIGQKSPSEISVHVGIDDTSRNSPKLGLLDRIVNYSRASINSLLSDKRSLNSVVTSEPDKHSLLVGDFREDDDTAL
UniProt Q9H1I8: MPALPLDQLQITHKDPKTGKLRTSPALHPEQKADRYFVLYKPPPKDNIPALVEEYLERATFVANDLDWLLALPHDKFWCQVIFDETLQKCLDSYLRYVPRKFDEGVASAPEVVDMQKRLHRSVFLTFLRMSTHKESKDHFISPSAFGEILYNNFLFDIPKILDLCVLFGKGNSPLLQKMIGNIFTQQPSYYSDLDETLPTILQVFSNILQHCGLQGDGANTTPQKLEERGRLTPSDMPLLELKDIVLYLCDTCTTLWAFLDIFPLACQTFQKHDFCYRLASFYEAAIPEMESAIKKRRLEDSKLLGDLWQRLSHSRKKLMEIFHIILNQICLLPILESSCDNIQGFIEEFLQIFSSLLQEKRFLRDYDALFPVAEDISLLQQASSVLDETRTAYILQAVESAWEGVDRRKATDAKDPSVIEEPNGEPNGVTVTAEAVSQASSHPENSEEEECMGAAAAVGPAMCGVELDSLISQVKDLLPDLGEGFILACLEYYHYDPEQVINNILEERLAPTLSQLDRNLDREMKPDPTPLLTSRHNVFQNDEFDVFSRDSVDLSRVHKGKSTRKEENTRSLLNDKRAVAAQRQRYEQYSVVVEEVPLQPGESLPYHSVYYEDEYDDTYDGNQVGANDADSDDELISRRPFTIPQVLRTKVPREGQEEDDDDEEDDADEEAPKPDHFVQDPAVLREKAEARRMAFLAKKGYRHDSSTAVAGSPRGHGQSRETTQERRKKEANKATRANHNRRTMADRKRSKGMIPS
UniProt Q7Z3C6: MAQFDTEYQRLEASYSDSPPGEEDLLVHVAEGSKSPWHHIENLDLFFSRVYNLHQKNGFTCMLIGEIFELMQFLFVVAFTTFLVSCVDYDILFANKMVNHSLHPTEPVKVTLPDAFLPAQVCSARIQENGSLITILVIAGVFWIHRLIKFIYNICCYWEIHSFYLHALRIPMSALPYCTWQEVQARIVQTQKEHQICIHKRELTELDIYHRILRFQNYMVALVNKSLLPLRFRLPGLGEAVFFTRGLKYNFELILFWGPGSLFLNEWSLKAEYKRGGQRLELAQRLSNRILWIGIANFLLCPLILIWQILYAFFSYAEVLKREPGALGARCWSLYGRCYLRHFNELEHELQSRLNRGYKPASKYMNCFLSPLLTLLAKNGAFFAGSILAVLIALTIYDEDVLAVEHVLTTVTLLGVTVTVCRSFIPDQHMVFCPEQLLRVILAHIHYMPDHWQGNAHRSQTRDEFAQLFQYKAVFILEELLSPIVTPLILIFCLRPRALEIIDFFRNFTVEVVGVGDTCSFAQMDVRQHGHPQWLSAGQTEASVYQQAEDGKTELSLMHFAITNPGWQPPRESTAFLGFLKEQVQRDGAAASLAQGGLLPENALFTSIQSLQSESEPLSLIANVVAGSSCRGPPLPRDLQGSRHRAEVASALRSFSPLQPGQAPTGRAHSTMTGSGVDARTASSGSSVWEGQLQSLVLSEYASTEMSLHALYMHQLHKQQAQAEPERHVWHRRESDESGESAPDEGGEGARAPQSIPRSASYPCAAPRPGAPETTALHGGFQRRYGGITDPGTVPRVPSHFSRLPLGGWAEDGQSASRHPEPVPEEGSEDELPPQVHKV
UniProt Q9Y294, whole entry, looked up: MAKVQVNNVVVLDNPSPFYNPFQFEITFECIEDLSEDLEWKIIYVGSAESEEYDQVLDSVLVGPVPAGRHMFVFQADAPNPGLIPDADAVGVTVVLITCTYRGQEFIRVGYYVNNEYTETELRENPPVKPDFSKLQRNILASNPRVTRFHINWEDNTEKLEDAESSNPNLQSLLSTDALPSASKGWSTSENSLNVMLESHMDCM
UniProt Q8NBU5: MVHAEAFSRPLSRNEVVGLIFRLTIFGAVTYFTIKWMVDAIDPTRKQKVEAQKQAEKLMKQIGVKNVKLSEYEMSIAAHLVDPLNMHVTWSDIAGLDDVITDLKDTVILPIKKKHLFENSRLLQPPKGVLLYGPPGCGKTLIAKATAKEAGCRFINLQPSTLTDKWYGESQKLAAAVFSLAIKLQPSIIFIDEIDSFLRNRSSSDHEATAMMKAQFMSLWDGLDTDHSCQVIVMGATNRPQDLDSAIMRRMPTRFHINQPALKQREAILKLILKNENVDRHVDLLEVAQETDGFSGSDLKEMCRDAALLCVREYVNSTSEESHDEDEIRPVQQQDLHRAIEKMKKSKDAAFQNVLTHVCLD
UniProt Q6DD88: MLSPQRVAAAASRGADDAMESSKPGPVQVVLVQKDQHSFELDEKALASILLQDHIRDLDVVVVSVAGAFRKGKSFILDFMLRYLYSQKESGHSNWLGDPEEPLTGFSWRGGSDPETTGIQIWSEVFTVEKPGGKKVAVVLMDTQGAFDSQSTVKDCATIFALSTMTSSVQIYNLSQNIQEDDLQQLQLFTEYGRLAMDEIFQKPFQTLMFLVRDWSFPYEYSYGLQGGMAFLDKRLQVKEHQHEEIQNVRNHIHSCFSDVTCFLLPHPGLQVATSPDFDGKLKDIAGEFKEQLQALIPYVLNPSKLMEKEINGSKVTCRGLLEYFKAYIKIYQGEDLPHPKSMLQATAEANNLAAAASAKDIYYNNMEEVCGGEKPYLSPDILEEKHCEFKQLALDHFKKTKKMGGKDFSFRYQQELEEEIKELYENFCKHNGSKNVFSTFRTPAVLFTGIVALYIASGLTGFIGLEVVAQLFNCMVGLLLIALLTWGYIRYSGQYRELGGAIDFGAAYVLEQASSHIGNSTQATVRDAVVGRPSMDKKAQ
UniProt P17544: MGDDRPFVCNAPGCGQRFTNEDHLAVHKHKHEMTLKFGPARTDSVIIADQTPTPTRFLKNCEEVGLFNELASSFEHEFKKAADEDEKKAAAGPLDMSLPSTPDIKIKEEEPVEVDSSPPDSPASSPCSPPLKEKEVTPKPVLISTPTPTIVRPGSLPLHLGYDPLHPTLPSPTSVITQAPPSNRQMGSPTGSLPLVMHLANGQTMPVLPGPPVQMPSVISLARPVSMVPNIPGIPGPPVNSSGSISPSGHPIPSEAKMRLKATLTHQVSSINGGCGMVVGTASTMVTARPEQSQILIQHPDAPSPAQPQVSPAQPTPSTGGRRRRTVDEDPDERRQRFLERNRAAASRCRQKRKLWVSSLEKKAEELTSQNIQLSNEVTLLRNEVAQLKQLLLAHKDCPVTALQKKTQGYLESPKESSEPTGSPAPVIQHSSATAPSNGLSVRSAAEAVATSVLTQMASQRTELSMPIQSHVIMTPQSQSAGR

[2] = compound: CS(=O)(=O)N1CCN(Cc2cc3nc(-c4cccc5[nH]ncc45)nc(N4CCOCC4)c3s2)CC1 [pictilisib]
How it was run: as §1

[3] = compound: C[C@@H](Oc1cc(-c2cnn(C3CCNCC3)c2)cnc1N)c1c(Cl)ccc(F)c1Cl [crizotinib]
How it was run: as §1

[4] = compound: C[C@H](C1=CC=C(C=C1)C(=O)NC2=C3C=CNC3=NC=C2)N
How it was run: as §1

[5] = compound: C[C@H](Nc1ncnc2nc[nH]c12)c1cc2cccc(Cl)c2c(=O)n1-c1ccccc1 [duvelisib]
How it was run: as §1

[6] = compound: Cc1cc(Nc2cc(CN3CCOCC3)c3nc(C)c(Cc4ccc(Cl)cc4F)n3n2)n[nH]1 [gandotinib]
How it was run: as §1

[7] = compound: Cc1cc(Nc2cc(N3CCN(C)CC3)nc(Sc3ccc(NC(=O)C4CC4)cc3)n2)n[nH]1 [tozasertib]
How it was run: as §1

[8] = compound: Cc1ccc(-n2nc(C(C)(C)C)cc2NC(=O)Nc2ccc(OCCN3CCOCC3)c3ccccc23)cc1 [doramapimod]
How it was run: as §1

[9] = compound: Cc1ccc(NC(=O)c2ccc(CN3CC[C@H](N(C)C)C3)c(C(F)(F)F)c2)cc1Nc1nccc(-c2cncnc2)n1 [bafetinib]
How it was run: as §1

[10] = compound: Cc1cccc(CC(=O)N2CCc3c2ccc(-c2cn(C)c4ncnc(N)c24)c3F)n1
How it was run: as §1

[11] = compound: Cc1cn(-c2cc(NC(=O)c3ccc(C)c(Nc4nccc(-c5cccnc5)n4)c3)cc(C(F)(F)F)c2)cn1 [nilotinib]
How it was run: as §1

[12] = compound: Cc1nc(Nc2n[nH]c3c2CN(C(=O)N[C@H](CN(C)C)c2ccccc2)C3(C)C)c2sccc2n1
How it was run: as §1

[13] = compound: Cc1nc(Nc2ncc(C(=O)Nc3c(C)cccc3Cl)s2)cc(N2CCN(CCO)CC2)n1 [dasatinib]
How it was run: as §1

[14] = compound: Cc1ncc(-c2ccnc(Nc3ccc(S(C)(=O)=O)cc3)n2)n1C(C)C
How it was run: as §1

[15] = compound: Cn1cc(-c2ccc3c(c2)CCN3C(=O)Cc2cccc(C(F)(F)F)c2)c2c(N)ncnc21
How it was run: as §1

[16] = compound: Cn1cc(CNCC2CCN(c3ncc(C(=O)NO)cn3)CC2)c2ccccc21 [quisinostat]
How it was run: as §1

[17] = compound: Cn1cncc1[C@@](N)(c1ccc(Cl)cc1)c1ccc2c(c1)c(-c1cccc(Cl)c1)cc(=O)n2C [tipifarnib]
How it was run: as §1

[18] = compound: NC(=O)Nc1cc(-c2cccc(F)c2)sc1C(=O)N[C@H]1CCCNC1
How it was run: as §1

[19] = compound: NC(=O)c1cnc(N[C@@H]2CCCC[C@@H]2N)nc1Nc1cccc(-n2nccn2)c1
How it was run: as §1

[20] = compound: NC1(c2ccc(-c3nc4ccn5c(=O)[nH]nc5c4cc3-c3ccccc3)cc2)CCC1
How it was run: as §1

Measured: log2 fold change

ASS1 (UniProt P00966)
inactive: [1] -0.032 | [2] -0.049 | [3] -0.023 | [4] 0.006 | [5] -0.035 | [6] -0.065 | [7] 0.019 | [8] -0.01 | [9] -0.062 | [10] -0.009 | [11] -0.027 | [12] -0.073 | [13] 0.092 | [14] 0.038 | [15] 0.074 | [16] 0.022 | [17] 0.032 | [18] 0.024 | [19] 0.002 | [20] 0.015

ATP7A isoform 3 (UniProt Q04656)
inactive: [1] -0.034 | [2] -0.029 | [3] -0.005 | [4] -0.035 | [5] -0.007 | [6] -0.002 | [7] 0.011 | [8] 0.008 | [9] 0.022 | [10] 0.012 | [11] 0.011 | [12] 0.065 | [13] -0.007 | [14] 0.036 | [15] 0.045 | [16] -0.041 | [17] -0.002 | [18] 0.007 | [19] 0.01 | [20] 0.012

ASCC2 (UniProt Q9H1I8)
inactive: [1] -0.012 | [2] 0.049 | [3] -0.044 | [4] 0.048 | [5] 0.04 | [6] -0.026 | [7] 0.023 | [8] -0.007 | [9] -0.205 | [10] -0.002 | [11] -0.005 | [12] -0.029 | [13] -0.01 | [14] -0.018 | [15] 0.026 | [16] -0.06 | [17] 0.082 | [18] 0.035 | [19] 0.038 | [20] -0.023

ATG9A (UniProt Q7Z3C6)
inactive: [1] -0.019 | [2] 0.015 | [3] 0.025 | [4] -0.018 | [5] 0.025 | [6] 0.012 | [7] -0.027 | [8] 0.012 | [9] -0.054 | [10] 0.019 | [11] -0.023 | [12] -0.009 | [13] 0.029 | [14] 0 | [15] 0 | [16] -0.021 | [17] 0.107 | [18] -0.022 | [19] 0.032 | [20] -0.054

ASF1A (UniProt Q9Y294)
inactive: [1] -0.002 | [2] 0.003 | [3] -0.009 | [4] -0.032 | [5] 0.055 | [6] 0.055 | [7] 0.048 | [8] -0.013 | [9] -0.027 | [10] 0.011 | [11] -0.006 | [12] 0.033 | [13] 0.05 | [14] 0.001 | [15] 0.002 | [16] -0.053 | [17] 0.008 | [18] 0.011 | [19] 0.016 | [20] -0.003

ATAD1 (UniProt Q8NBU5)
active: [6] 0.386
inactive: [1] -0.158 | [2] 0.012 | [3] -0.022 | [4] -0.081 | [5] -0.051 | [7] 0.017 | [8] 0.015 | [9] -0.008 | [10] 0.012 | [11] 0.073 | [12] -0.015 | [13] 0.001 | [14] -0.153 | [15] 0.039 | [16] -0.072 | [17] -0.072 | [18] -0.001 | [19] 0.027 | [20] -0.031

ATL3 (UniProt Q6DD88)
inactive: [1] -0.005 | [2] -0.017 | [3] -0.069 | [4] 0.006 | [5] -0.022 | [6] -0.113 | [7] 0 | [8] -0.011 | [9] 0 | [10] 0.023 | [11] 0.01 | [12] 0.003 | [13] -0.066 | [14] 0.002 | [15] -0.023 | [16] 0.031 | [17] -0.037 | [18] 0.019 | [19] -0.014 | [20] -0.005

ATF7 isoform 6 (UniProt P17544)
inactive: [1] 0.04 | [2] 0.124 | [3] -0.14 | [4] 0.113 | [5] 0.051 | [6] -0.05 | [7] -0.049 | [8] 0.104 | [9] 0.187 | [10] -0.122 | [11] 0.083 | [12] 0.091 | [13] -0.045 | [14] 0.041 | [15] -0.034 | [16] -0.333 | [17] 0.154 | [18] -0.026 | [19] -0.056 | [20] -0.043

Reference: the supplement of paper PMC10849652
